In patent US12729225B2, “Non-canonical SWI/SNF complex and uses thereof” (Dana-Farber Cancer Institute, Inc., priority 2018, dated 2026):

Tested on: mSWI/SNF complexes
Assay: mSWI/SNF complex purification with HA-tagged baits and mass spectrometry (peptide counts)
Parameters: species or system human
[1] = 293_HA-BRD7: HA-BRD7 bait purification, total peptide count per co-purified protein
[2] = 293_HA-BRD7: HA-BRD7 bait purification, unique peptide count per co-purified protein
[3] = total peptide count of the co-purified protein, 293_HA-BRD9 (HA-BRD9 bait, mass spectrometry), Table 3b
[4] = unique peptide count of the co-purified protein, 293_HA-BRD9 (HA-BRD9 bait, mass spectrometry), Table 3b

B1: ATP2A1 (protein, UniProt O14983 1-1001, looked up)
Sarcoplasmic/endoplasmic …: MEAAHAKTTEECLAYFGVSETTGLTPDQVKRNLEKYGLNELPAEEGKTLWELVIEQFEDLLVRILLLAACISFVLAWFEEGEETITAFVEPFVILLILIANAIVGVWQERNAENAIEALKEYEPEMGKVYRADRKSVQRIKARDIVPGDIVEVAVGDKVPADIRILAIKSTTLRVDQSILTGESVSVIKHTEPVPDPRAVNQDKKNMLFSGTNIAAGKALGIVATTGVGTEIGKIRDQMAATEQDKTPLQQKLDEFGEQLSKVISLICVAVWLINIGHFNDPVHGGSWFRGAIYYFKIAVALAVAAIPEGLPAVITTCLALGTRRMAKKNAIVRSLPSVETLGCTSVICSDKTGTLTTNQMSVCKMFIIDKVDGDICLLNEFSITGSTYAPEGEVLKNDKPVRPGQYDGLVELATICALCNDSSLDFNEAKGVYEKVGEATETALTTLVEKMNVFNTDVRSLSKVERANACNSVIRQLMKKEFTLEFSRDRKSMSVYCSPAKSSRAAVGNKMFVKGAPEGVIDRCNYVRVGTTRVPLTGPVKEKIMAVIKEWGTGRDTLRCLALATRDTPPKREEMVLDDSARFLEYETDLTFVGVVGMLDPPRKEVTGSIQLCRDAGIRVIMITGDNKGTAIAICRRIGIFGENEEVADRAYTGREFDDLPLAEQREACRRACCFARVEPSHKSKIVEYLQSYDEITAMTGDGVNDAPALKKAEIGIAMGSGTAVAKTASEMVLADDNFSTIVAAVEEGRAIYNNMKQFIRYLISSNVGEVVCIFLTAALGLPEALIPVQLLWVNLVTDGLPATALGFNPPDLDIMDRPPRSPKEPLISGWLFFRYMAIGGYVGAATVGAAAWWFLYAEDGPHVNYSQLTHFMQCTEDNTHFEGIDCEVFEAPEPMTMALSVLVTIEMCNALNSLSENQSLLRMPPWVNIWLLGSICLSMSLHFLILYVDPLPMIFKLRALDLTQWLMVLKISLPVIGLDEILKFVARNYLEDPEDERRK
With B1 as the molecule, how does the Total [1] read?
The Total was 4.

And the Unique [2]?
Its Unique is 4.

And the Total [3]?
Its Total is 1.

What about the Unique [4] of the same molecule?
Its Unique is 1.

B2: SLC25A3 (protein, UniProt Q00325 50-362, looked up)
Solute carrier family 25 …: AVEEQYSCDYGSGRFFILCGLGGIISCGTTHTALVPLDLVKCRMQVDPQKYKGIFNGFSVTLKEDGVRGLAKGWAPTFLGYSMQGLCKFGFYEVFKVLYSNMLGEENTYLWRTSLYLAASASAEFFADIALAPMEAAKVRIQTQPGYANTLRDAAPKMYKEEGLKAFYKGVAPLWMRQIPYTMMKFACFERTVEALYKFVVPKPRSECSKPEQLVVTFVAGYIAGVFCAIVSHPADSVVSVLNKEKGSSASLVLKRLGFKGVWKGLFARIIMIGTLTALQWFIYDSVKVYFRLPRPPPPEMPESLKKKLGLTQ
Which results are given for B2?
Total [1]: 10; Unique [2]: 10; Total [3]: 1; Unique [4]: 1

B3: EPB41 (protein, UniProt P11171 1-864, looked up)
Protein 4.1: MTTEKSLVTEAENSQHQQKEEGEEAINSGQQEPQQEESCQTAAEGDNWCEQKLKASNGDTPTHEDLTKNKERTSESRGLSRLFSSFLKRPKSQVSEEEGKEVESDKEKGEGGQKEIEFGTSLDEEIILKAPIAAPEPELKTDPSLDLHSLSSAETQPAQEELREDPDFEIKEGEGLEECSKIEVKEESPQSKAETELKASQKPIRKHRNMHCKVSLLDDTVYECVVEKHAKGQDLLKRVCEHLNLLEEDYFGLAIWDNATSKTWLDSAKEIKKQVRGVPWNFTFNVKFYPPDPAQLTEDITRYYLCLQLRQDIVAGRLPCSFATLALLGSYTIQSELGDYDPELHGVDYVSDFKLAPNQTKELEEKVMELHKSYRSMTPAQADLEFLENAKKLSMYGVDLHKAKDLEGVDIILGVCSSGLLVYKDKLRINRFPWPKVLKISYKRSSFFIKIRPGEQEQYESTIGFKLPSYRAAKKLWKVCVEHHTFFRLTSTDTIPKSKFLALGSKFRYSGRTQAQTRQASALIDRPAPHFERTASKRASRSLDGAAAVDSADRSPRPTSAPAITQGQVAEGGVLDASAKKTVVPKAQKETVKAEVKKEDEPPEQAEPEPTEAWKVEKTHIEVTVPTSNGDQTQKLAEKTEDLIRMRKKKRERLDGENIYIRHSNLMLEDLDKSQEEIKKHHASISELKKNFMESVPEPRPSEWDKRLSTHSPFRTLNINGQIPTGEGPPLVKTQTVTISDNANAVKSEIPTKDVPIVHTETKTITYEAAQTDDNSGDLDPGVLLTAQTITSETPSSTTTTQITKTVKGGISETRIEKRIVITGDADIDHDQVLVQAIKEAKEQHPDMSVTKVVVHQETEIADE
What does the source list for B3?
Total [1]: 9; Unique [2]: 9; Total [3]: 1; Unique [4]: 1
